Laboratory results published in publication PMC11358521.

Target: T1, heterogeneous nuclear ribonucleoprotein R (hnRNP R) (mouse (endogenous in primary motoneurons)) (UniProt Q8VHM5)
T1 sequence: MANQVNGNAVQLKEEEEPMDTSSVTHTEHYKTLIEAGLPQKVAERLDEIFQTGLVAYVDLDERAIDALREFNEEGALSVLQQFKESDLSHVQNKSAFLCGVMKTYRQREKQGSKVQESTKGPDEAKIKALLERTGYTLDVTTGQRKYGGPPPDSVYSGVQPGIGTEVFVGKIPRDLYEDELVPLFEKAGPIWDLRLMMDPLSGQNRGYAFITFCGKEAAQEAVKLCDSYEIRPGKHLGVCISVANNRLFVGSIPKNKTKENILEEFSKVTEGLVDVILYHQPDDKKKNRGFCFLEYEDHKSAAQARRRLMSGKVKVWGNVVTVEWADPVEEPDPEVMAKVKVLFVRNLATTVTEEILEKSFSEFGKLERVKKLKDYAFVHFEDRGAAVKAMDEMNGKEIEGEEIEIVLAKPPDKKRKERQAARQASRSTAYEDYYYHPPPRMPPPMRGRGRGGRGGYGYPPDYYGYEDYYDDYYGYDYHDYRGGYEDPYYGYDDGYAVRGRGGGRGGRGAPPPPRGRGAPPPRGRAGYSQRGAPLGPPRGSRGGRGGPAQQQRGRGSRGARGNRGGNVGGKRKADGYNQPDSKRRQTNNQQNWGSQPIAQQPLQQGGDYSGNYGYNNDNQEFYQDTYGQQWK
Test: co-IP; anti-hnRNP R antibody on magnetic Dynabeads Protein A or G, whole lysate of primary mouse motoneurons (DIV 7), without or with Benzonase; lysis 10 mM HEPES pH 7.0, 100 mM KCl, 5 mM MgCl2, 0.5% NP-40; overnight at 4 °C; immunoblot

- binding: binds
Substance: initiation factor eIF4G

Results are given in words; binding and its absence hold for the method and conditions named. Binding seen in cells or lysates may run through a third protein. A result given as binding can be weak or reduced; the word gives no strength.
